# According to patent US10709784B2, “Metal chelating compositions and methods for controlling the growth or activities of a living cell or organism” (CHELATION PARTNERS INCORPORATED, priority 2011, dated 2020):
# At least one structure is not confirmed: it was looked up by name or label, or the drawing left a doubt.
# Test: Stripping of iron from deferoxamine by dialysis
# Type: binding
# Conditions: after dialysis against soluble chelator from example 4
smiles,measurement,value
"CC(=O)N(O)CCCCCNC(=O)CCC(=O)N(O)CCCCCNC(=O)CCC(=O)N(O)CCCCCN [DESFERAL, deferoxamine]",total iron left bound by the deferoxamine B,29%
